PubChem BioAssay AID686937 – Drosophila RNAi Screening Center | 2013
Purpose: 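Knock-downs that reduce output of a secreted reporter enzyme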 (primary screen). Cells: Drosophila S2 cells expressing secreted horseradish peroxidase. Reagent: long dsRNA against Drosophila genes. Time to read-out: about 5.5 days (5 days dsRNA, then 12 h reporter induction). Conditions: reporter expression induced after 5 days of dsRNA, read 12 h later; inducer not stated. Measurement: 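Chemiluminescent measurement of peroxidase in the medium 12 h after reporter induction, following 5 days of dsRNA, given as a z-score per plate; higher means more secretion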. Direction: z-score: higher = more reporter secreted into medium.
In all, the deposit lists about 23,000 reagents; this is a random part of those that have a named target and a result. 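Reduced-secretion tags in replicate 1 do not always agree with the z-scores; no criterion for assigning the tags was given.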 Reagents against one gene are numbered here. Names joined by + are all predicted targets of the reagent. Not stated in the record: the amount of reagent.

Target gene | reagent no. | z-score, replicate 1 | z-score, replicate 2 | z-score, replicate 3 | z-score, replicate 4 | phenotype, replicate 1
Or42b (Odorant receptor 42b) | 1 | 0.13 | 0.2 | – | – | –
asRNA:CR43477 + CG12256 | 1 | 0.29 | 0.59 | – | – | –
CG10104 | 1 | 0.39 | 0.46 | – | – | –
ATPsynCF6 (ATP synthase, coupling factor 6) | 1 | -0.08 | -0.49 | – | – | –
CG5504 | 1 | 0.25 | 0.23 | – | – | –
ara (araucan) | 1 | -1.84 | -1.47 | – | – | reduced secretion
CG1902 | 1 | 0.11 | 0.32 | – | – | –
Fcp3C (Follicle cell protein 3C) | 1 | 0.44 | 0.4 | – | – | –
CG9483 | 1 | 0 | 0.36 | – | – | –
CG40045 | 1 | 0.25 | 0.36 | – | – | –
CG17562 | 1 | 0.65 | 0.14 | – | – | –
RpL37-2 (Ribosomal protein L37-2) | 1 | 0.03 | 0.22 | – | – | –
CG8097 | 1 | 0.23 | 0.29 | – | – | –
CG13217 | 1 | 0.24 | 0.45 | – | – | –
CG13252 | 1 | 0.12 | -0.13 | – | – | –
TwdlC (TweedleC) | 1 | 0.35 | 0.56 | – | – | –
CG10222 | 1 | 0.02 | 0 | – | – | –
Ir60b (Ionotropic receptor 60b) | 1 | 0.3 | 0.19 | – | – | –
EMC8-9 (ER membrane protein complex subunit 8/9) | 1 | -0.01 | -0.04 | – | – | –
Rel (Relish) | 1 | -0.26 | 0.3 | – | – | –
CG34434 | 1 | 0.33 | -0.28 | – | – | –
CG34030 | 1 | 0.48 | 0.29 | – | – | –

The list goes on, starting with the last 4 of the part before.
Target gene | reagent no. | z-score, replicate 1 | z-score, replicate 2 | z-score, replicate 3 | z-score, replicate 4 | phenotype, replicate 1
EMC8-9 (ER membrane protein complex subunit 8/9) | 1 | -0.01 | -0.04 | – | – | –
Rel (Relish) | 1 | -0.26 | 0.3 | – | – | –
CG34434 | 1 | 0.33 | -0.28 | – | – | –
CG34030 | 1 | 0.48 | 0.29 | – | – | –
bon (bonus) | 1 | 0.24 | 0.37 | – | – | –
CG13806 | 1 | 0.02 | 0.15 | – | – | –
Ac3 (Adenylate cyclase 3) | 1 | 0.13 | 0.23 | – | – | –
mth (methuselah) | 1 | 0.33 | 0.08 | – | – | –
MTF-1 (Metal response element-binding Transcription Factor-1) | 1 | 0.09 | 0.39 | – | – | –
MTF-1 (Metal response element-binding Transcription Factor-1) | 2 | -3.44 | 0.44 | 0.49 | -3.23 | reduced secretion
MTF-1 (Metal response element-binding Transcription Factor-1) | 3 | -6.1 | -4.84 | – | – | reduced secretion
CG16758 | 1 | 0.07 | 0.44 | – | – | –
CG16758 | 2 | 0.2 | 0.51 | – | – | –
Paics (PAICS bifunctional enzyme) | 1 | 0.27 | 0.17 | – | – | –
CG12692 | 1 | 0.32 | 0.49 | – | – | –
IFT57 (Intraflagellar transport 57) | 1 | -0.09 | 0.17 | – | – | –
mthl11 (methuselah-like 11) | 1 | 0.26 | 0.39 | – | – | –
CG13747 | 1 | 0.42 | 0.11 | – | – | –
CG42523 | 1 | 0.26 | 0.41 | – | – | –
CG13229 | 1 | 0.31 | 0.55 | – | – | –
Gat (GABA transporter) | 1 | 0.3 | 0.21 | – | – | –
CG12971 | 1 | 0.3 | 0.33 | – | – | –
Obp56g (Odorant-binding protein 56g) | 1 | 0.11 | 0.09 | – | – | –
ClpP (Caseinolytic protease proteolytic subunit) | 1 | 0.24 | 0.3 | – | – | –
Cpr64Aa (Cuticular protein 64Aa) | 1 | -1.58 | -1.24 | – | – | reduced secretion
CG4017 | 1 | 0.53 | 0.15 | – | – | –
krz (kurtz) | 1 | 0.44 | 0.35 | – | – | –
CG10560 | 1 | -0.14 | -0.3 | – | – | –
Fum3 (Fumarase 3) | 1 | 0.36 | 0.16 | – | – | –
CG7101 | 1 | 0.18 | 0.1 | – | – | –
CG7101 | 2 | -0.34 | -0.28 | – | – | –
CG17075 | 1 | 0.38 | 0.52 | – | – | –
Dlc90F (Dynein light chain 90F) | 1 | 0.26 | 0.38 | – | – | –
CG11298 | 1 | -0.09 | 0.32 | – | – | –
Pgm2b (Phosphoglucomutase 2b) | 1 | 0.25 | 0.25 | – | – | –
Drsl3 (Drosomycin-like 3) | 1 | 0.02 | -0.17 | – | – | –
MAN1 | 1 | 0.23 | 0.23 | – | – | –
al (aristaless) | 1 | 0.18 | 0.13 | -0.41 | -0.3 | –
